The values that follow come from article PMC8460787.

The chains behind the UniProt entries cited, without tags or fusion partners.
UniProt P14713: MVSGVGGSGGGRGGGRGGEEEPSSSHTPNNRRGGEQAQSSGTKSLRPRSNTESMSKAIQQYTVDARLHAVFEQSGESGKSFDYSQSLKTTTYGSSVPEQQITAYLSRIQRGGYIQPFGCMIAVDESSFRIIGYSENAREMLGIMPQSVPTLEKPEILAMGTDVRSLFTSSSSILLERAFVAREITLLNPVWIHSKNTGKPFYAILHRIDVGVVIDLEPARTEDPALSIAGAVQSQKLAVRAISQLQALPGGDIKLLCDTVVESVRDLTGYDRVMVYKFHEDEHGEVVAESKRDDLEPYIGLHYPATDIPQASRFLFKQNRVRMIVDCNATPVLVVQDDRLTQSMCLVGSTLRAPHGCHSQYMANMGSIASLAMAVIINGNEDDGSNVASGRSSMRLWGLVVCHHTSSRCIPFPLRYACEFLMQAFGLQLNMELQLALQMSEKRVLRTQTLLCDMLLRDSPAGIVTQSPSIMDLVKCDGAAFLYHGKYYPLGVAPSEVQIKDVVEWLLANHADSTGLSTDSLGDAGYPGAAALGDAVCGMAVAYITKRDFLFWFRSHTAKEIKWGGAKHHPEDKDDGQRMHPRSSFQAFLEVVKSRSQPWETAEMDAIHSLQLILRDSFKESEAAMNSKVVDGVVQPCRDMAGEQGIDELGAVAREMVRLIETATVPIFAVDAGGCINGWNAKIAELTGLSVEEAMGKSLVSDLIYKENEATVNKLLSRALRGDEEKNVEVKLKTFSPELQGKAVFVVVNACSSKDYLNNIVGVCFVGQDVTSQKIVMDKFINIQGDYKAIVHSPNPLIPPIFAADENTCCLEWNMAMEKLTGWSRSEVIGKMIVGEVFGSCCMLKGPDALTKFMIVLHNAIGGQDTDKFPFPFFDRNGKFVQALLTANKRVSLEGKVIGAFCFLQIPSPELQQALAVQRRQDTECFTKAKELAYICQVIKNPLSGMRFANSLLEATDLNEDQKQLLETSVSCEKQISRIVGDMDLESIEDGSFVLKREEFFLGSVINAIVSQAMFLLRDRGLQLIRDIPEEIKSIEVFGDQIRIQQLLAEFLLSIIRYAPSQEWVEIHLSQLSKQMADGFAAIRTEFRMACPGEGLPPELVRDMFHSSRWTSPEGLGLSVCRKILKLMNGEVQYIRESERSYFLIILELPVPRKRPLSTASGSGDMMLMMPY

Residue numbers refer to the chain shown, from its start. Results are given in words; binding and its absence hold for the method and conditions named. Binding seen in cells or lysates may run through a third protein. Some entries that bind do so weakly or less than the wild type. Sequences can lack the tags named with a protein.

Test [1] deals with T1, GST-PIF3mAD (Arabidopsis thaliana) (UniProt O80536).
T1 sequence: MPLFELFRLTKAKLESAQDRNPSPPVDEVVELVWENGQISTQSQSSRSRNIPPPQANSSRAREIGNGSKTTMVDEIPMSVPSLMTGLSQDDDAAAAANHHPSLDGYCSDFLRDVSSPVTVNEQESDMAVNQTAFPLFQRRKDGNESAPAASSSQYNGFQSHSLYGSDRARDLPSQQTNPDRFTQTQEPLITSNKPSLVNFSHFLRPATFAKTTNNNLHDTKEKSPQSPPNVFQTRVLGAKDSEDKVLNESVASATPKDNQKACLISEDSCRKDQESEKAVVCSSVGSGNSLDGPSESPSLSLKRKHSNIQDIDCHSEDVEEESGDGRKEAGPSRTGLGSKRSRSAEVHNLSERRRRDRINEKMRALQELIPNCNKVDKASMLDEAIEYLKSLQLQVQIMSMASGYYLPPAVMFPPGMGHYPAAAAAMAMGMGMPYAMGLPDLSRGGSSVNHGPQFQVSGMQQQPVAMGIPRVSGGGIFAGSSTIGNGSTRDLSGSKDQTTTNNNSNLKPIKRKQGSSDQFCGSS
Kind of test: pull-down; GST fusion proteins immobilised on glutathione Sepharose beads; in vitro translated PHYA-HA or PHYB-HA holoproteins (20 µM PCB) incubated in E wash buffer (E buffer: 50 mM Tris-HCl pH 7.5, 100 mM NaCl, 1 mM EDTA, 1 mM EGTA, 1% DMSO, 2 mM DTT; with 0.1% IGEPAL CA-630) for 2 h at 4 °C; in R light (Pfr), also done in FR light (Pr); bound fractions detected by anti-HA immunoblot; only the target purified.

For test [2], the target named is T2, GST-PIF3 (Arabidopsis thaliana) (UniProt O80536).
T2 sequence: T1 sequence with A93F, A94V, A95P, A96W, A97L
The description is as above.

With “PHYB-HA (from UniProt P14713 1-1172) (receptor)”, the binding result in test [1] and in test [2] was “binds” throughout.

B1: PHYA-HA (receptor, UniProt P14712 1-1122)
chain: MSGSRPTQSSEGSRRSRHSARIIAQTTVDAKLHADFEESGSSFDYSTSVRVTGPVVENQPPRSDKVTTTYLHHIQKGKLIQPFGCLLALDEKTFKVIAYSENASELLTMASHAVPSVGEHPVLGIGTDIRSLFTAPSASALQKALGFGDVSLLNPILVHCRTSAKPFYAIIHRVTGSIIIDFEPVKPYEVPMTAAGALQSYKLAAKAITRLQSLPSGSMERLCDTMVQEVFELTGYDRVMAYKFHEDDHGEVVSEVTKPGLEPYLGLHYPATDIPQAARFLFMKNKVRMIVDCNAKHARVLQDEKLSFDLTLCGSTLRAPHSCHLQYMANMDSIASLVMAVVVNEEDGEGDAPDATTQPQKRKRLWGLVVCHNTTPRFVPFPLRYACEFLAQVFAIHVNKEVELDNQMVEKNILRTQTLLCDMLMRDAPLGIVSQSPNIMDLVKCDGAALLYKDKIWKLGTTPSEFHLQEIASWLCEYHMDSTGLSTDSLHDAGFPRALSLGDSVCGMAAVRISSKDMIFWFRSHTAGEVRWGGAKHDPDDRDDARRMHPRSSFKAFLEVVKTRSLPWKDYEMDAIHSLQLILRNAFKDSETTDVNTKVIYSKLNDLKIDGIQELEAVTSEMVRLIETATVPILAVDSDGLVNGWNTKIAELTGLSVDEAIGKHFLTLVEDSSVEIVKRMLENALEGTEEQNVQFEIKTHLSRADAGPISLVVNACASRDLHENVVGVCFVAHDLTGQKTVMDKFTRIEGDYKAIIQNPNPLIPPIFGTDEFGWCTEWNPAMSKLTGLKREEVIDKMLLGEVFGTQKSCCRLKNQEAFVNLGIVLNNAVTSQDPEKVSFAFFTRGGKYVECLLCVSKKLDREGVVTGVFCFLQLASHELQQALHVQRLAERTAVKRLKALAYIKRQIRNPLSGIMFTRKMIEGTELGPEQRRILQTSALCQKQLSKILDDSDLESIIEGCLDLEMKEFTLNEVLTASTSQVMMKSNGKSVRITNETGEEVMSDTLYGDSIRLQQVLADFMLMAVNFTPSGGQLTVSASLRKDQLGRSVHLANLEIRLTHTGAGIPEFLLNQMFGTEEDVSEEGLSLMVSRKLVKLMNGDVQYLRQAGKSSFIITAELAAANK
modifications: phycocyanobilin chromophore, conjugated
B1: the binding entry in test [1] and in test [2] was “binds” each time.
